The supplement of paper PMC10735217
Counter-ions that a name gives are not always drawn. The list shows a part of the results. This data set is noisy: repeats of one test often differ as much as different tests do.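 In a drug-repurposing library screen, luminescence reads luciferase driven by eight TEAD-binding elements, stably integrated into human kidney-derived cells. Compounds scoring over five robust Z scores above the plate mean are called hits.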

Test system: HEK293A TEAD-LUC reporter
Assay: TEAD-luciferase reporter activity (YAP activation), robust Z score vs plate; higher = stronger YAP/TEAD activation
Details: 24 h

Row | Structure (SMILES) | TEAD-luciferase reporter activity (compound concentration: 200 nM) | TEAD-luciferase reporter activity (compound concentration: 2 uM) | TEAD-luciferase reporter activity (compound concentration: 10 uM)
1 | CC(C)(C)C(=O)SCC(=O)[C@@]1(O)CCC2C3CCC4=CC(=O)CC[C@]4(C)C3[C@@H](O)C[C@@]21C (stereo partly drawn) | inactive: 0.379 | inactive: 1.93 | inactive: 1.78
2 | C=CCCC(=O)NC[C@H]1CN(c2ccc(N3CCOCC3)c(F)c2)C(=O)O1 | inactive: -1.01 | inactive: -0.241 | inactive: 2.58
3 | CN1CCCN=C1/C=C/c1cccc(O)c1 [Oxantel (pamoate)] | inactive: 0.35 | inactive: -0.462 | inactive: 0.00523
4 | CC1CC(OC(=O)c2ccccc2)CC(C)(C)N1 (stereo not drawn) | inactive: -1.11 | inactive: -0.585 | inactive: -0.817
5 | Oc1ccc(N2CCN(c3ccccc3)CC2)nn1 | inactive: 4.11 | inactive: 1.07 | inactive: -1.45
6 | Ic1ccc2nc(-c3ccccc3)cn2c1 | inactive: 1.36 | inactive: -2.23 | inactive: -0.0965
7 | O=C1Nc2ccccc2CC12CCCN(CC1CC1)C2 (stereo not drawn) | inactive: -1.02 |  | inactive: 0.395
8 | Cc1nccn1CC1CCc2c(c3cccc4c3n2CCC4)C1=O (stereo not drawn) | inactive: -0.899 | inactive: -0.323 | inactive: -1.13
9 | O=C(O)[C@@H]1[O][Sb](=[O])([O][Sb]2(=[O])[O][C@H]([C@H](O)CO)[C@H](O)[C@H](C(=O)O)[O]2)[O][C@H]([C@H](O)CO)[C@@H]1O (stereo partly drawn) [Sodium stibogluconate] | inactive: 1.19 | inactive: 1.8 | inactive: 0.99
10 | O=C(CCNC(=O)c1ccccc1Cl)NCC12CC3CC(CC(C3)C1)C2 | inactive: 0.202 | inactive: -0.475 | inactive: -0.606
11 | Nc1nc(=O)c2ncn(CC(CO)CO)c2[nH]1 [Tivicilovir] | inactive: 0.395 | inactive: -1.61 | inactive: -0.606
12 | C[C@@H]1CN(C[C@@H](c2cccc(OC(F)(F)F)c2)C2(O)CCCCC2)C[C@H](C)N1 | inactive: -0.318 | inactive: 1.11 | inactive: -1.1
13 | Cc1cc(C(C)(C)C)c(O)c(C)c1CC1=NCCN1 [oxymetazoline, Allergan] | inactive: -0.756 | inactive: -0.695 | inactive: -0.718
14 | COc1nc(C)cnc1NS(=O)(=O)c1cccnc1-c1ccc(CC(C)(C)C(=O)O)cc1 | inactive: -0.129 | inactive: -0.364 | inactive: 1.6
15 | CC(/C=C/[C@@H]1C[C@]1(C)c1ccc2c(c1)C(C)(C)CCC2(C)C)=C\C(=O)O | inactive: -0.185 | inactive: 0.745 | inactive: 2.71
16 | COC(=O)c1[nH]cc(-c2ccc(Br)cc2)c1N1CCOCC1 | inactive: 1.04 | inactive: -1.03 | inactive: -1.29
17 | CC(C)(O)c1ccccc1-c1ccc2[nH]c(/C=C/c3ccc(C(F)(F)F)cc3)nc2c1 [Mavatrep] | inactive: 3.01 | inactive: -0.0843 | inactive: -0.139
18 | O=C1OC(n2cc(F)c(=O)[nH]c2=O)c2ccccc21 (stereo not drawn) | inactive: -1.12 | inactive: 3.62 | inactive: -1.25
19 | Cc1oc2c(C)c3oc(=O)cc(C)c3cc2c1COCCO | inactive: -0.992 | inactive: -2 | inactive: 1.08

From no. 3 to 4, copied from above:
Row | Structure (SMILES) | TEAD-luciferase reporter activity (compound concentration: 200 nM) | TEAD-luciferase reporter activity (compound concentration: 2 uM) | TEAD-luciferase reporter activity (compound concentration: 10 uM)
3 | CN1CCCN=C1/C=C/c1cccc(O)c1 [Oxantel (pamoate)] | inactive: 0.35 | inactive: -0.462 | inactive: 0.00523
4 | CC1CC(OC(=O)c2ccccc2)CC(C)(C)N1 (stereo not drawn) | inactive: -1.11 | inactive: -0.585 | inactive: -0.817

The list goes on:

Row | Structure (SMILES) | TEAD-luciferase reporter activity (compound concentration: 200 nM) | TEAD-luciferase reporter activity (compound concentration: 2 uM) | TEAD-luciferase reporter activity (compound concentration: 10 uM)
20 | N#Cc1cc(NC(=O)[C@H]2c3ccccc3C(=O)N(CC(F)(F)F)[C@@H]2c2cccnc2)ccc1F | inactive: -0.764 | inactive: -0.358 | inactive: 0.252
21 | Oc1ccc(C2Oc3ccc(O)cc3C3CCCC32)cc1 (stereo not drawn) | inactive: -1.33 | inactive: -0.0696 | inactive: 0.942
22 | CN1CC[C@@H](c2c(O)cc(O)c3c(=O)cc(-c4ccc(C(F)(F)F)cc4Cl)oc23)[C@@H]1CO [Voruciclib hydrochloride] | inactive: 0.142 | inactive: 1.73 | inactive: 0.371
23 | CCc1nn(CCCN2CCN(c3cccc(Cl)c3)CC2)c(=O)n1CC [etoperidone] |  | inactive: 0.193 | 
24 | CCc1nn(CCCN2CCN(c3cccc(Cl)c3)CC2)c(=O)n1CC | inactive: -1.29 | inactive: -1.44 | inactive: 0.696
25 | CCN(CC)CCOc1cccc(O)c1 | inactive: 2.05 | inactive: 0.936 | inactive: -1.18
26 | CCC(C(=O)OCCN1CCN(CCOC(=O)C(CC)c2ccccc2)CC1)c1ccccc1 (stereo not drawn) | inactive: -0.545 | inactive: 0.277 | inactive: 0.985
27 | CNCc1c(-c2ccc(Cl)cc2)nc2ccccn12 | inactive: -0.418 | inactive: 0.479 | inactive: -0.67
28 | O=C(O)c1ccc(CN(Cc2cccc(F)c2)c2ccc(OCc3ccc4ccccc4c3)cc2)cc1 [analog of ETH-615] | inactive: -0.843 | inactive: 1.08 | inactive: -0.157
29 | O=C1Cc2cc3c(CCC4CCN(Cc5ccccc5)CC4)noc3cc2N1 | inactive: -1.44 | inactive: 0.812 | inactive: 1.34
30 | Cc1c(C)c2ccc(OS(C)(=O)=O)cc2oc1=O | inactive: -0.53 | inactive: 1.43 | inactive: 0.933
31 | Cc1ccc(CC(=O)N(C)[C@H](Cc2ccc3ccccc3c2)C(=O)N[C@H]2CCCC[C@H]2NC(=O)c2c[nH]c3ccccc23)cc1 | inactive: -1.67 | inactive: -1.91 | inactive: -0.395
32 | Cc1cc(O)cc(C)c1Cl | inactive: -0.489 | inactive: 0.686 | inactive: 0.0017
33 | COc1cc(NC(C)CCCN/C(C)=C2/CCOC2=O)c2ncccc2c1 (stereo not drawn) | inactive: -1.22 | inactive: -0.548 | inactive: -0.0839
34 | O=C(Cn1ccnc1)OCc1ccc(-c2ccccc2Cl)cc1 | inactive: -2.55 | inactive: -0.37 | inactive: -1
35 | COc1ccc([C@@H]2Sc3ccccc3N(CCN)C(=O)[C@@H]2OC(C)=O)cc1 | inactive: -1.7 | inactive: -1.82 | inactive: -2.6
36 | COc1ccc(OCCN(C)Cc2cc(C(C)C)c(C)cc2O)cc1 | inactive: -1.28 | inactive: -0.0973 | inactive: 0.296
37 | Cc1c(-c2ccc(O)cc2)n(Cc2ccc(OCCN3CCCCCC3)cc2)c2ccc(O)cc12 [bazedoxifene acetate] | inactive: -0.447 | inactive: -1.35 | inactive: 0.909
